Assay results reported in patent US20220380408A1, “COMPOSITIONS AND METHODS FOR INHIBITING NEOINTIMAL FORMATION” (University of Virginia Patent Foundation, priority 2019, published 2022).
These are yes or no findings as the source states them, for the method shown. Some results given as binding are weak or reduced against the parent protein; the word gives no strength. Blank lines part the entries; values can stand above or below the binder they belong to.

Protein sequences, listed by entry. Tags and fused reporters are not part of them.
UniProt P24864: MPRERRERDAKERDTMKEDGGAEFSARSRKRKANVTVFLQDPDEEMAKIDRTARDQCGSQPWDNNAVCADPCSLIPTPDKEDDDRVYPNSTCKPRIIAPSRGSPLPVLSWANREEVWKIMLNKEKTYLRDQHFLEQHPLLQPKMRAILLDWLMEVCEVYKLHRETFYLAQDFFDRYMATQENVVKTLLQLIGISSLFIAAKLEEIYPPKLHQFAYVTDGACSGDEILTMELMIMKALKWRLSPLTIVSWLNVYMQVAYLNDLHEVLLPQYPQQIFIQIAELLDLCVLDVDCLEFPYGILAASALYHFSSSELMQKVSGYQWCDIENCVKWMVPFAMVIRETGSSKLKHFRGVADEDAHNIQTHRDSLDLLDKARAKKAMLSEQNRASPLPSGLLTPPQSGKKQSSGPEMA

Assays:
[1] = target: T1, cyclin E (Homo sapiens, UniProt P24864); assay: peptide array on nitrocellulose probed with recombinant cyclin E, anti-cyclin E antibody, ECL
[2] = target: T1, cyclin E; assay: truncation peptide array probed with recombinant cyclin E

binding [1]: binds
B1: Peptide 1 (…), Cx43-CT array peptide (peptide)
peptide: QGPLGVKDRVKGRSDPYHATTGPLD

binding [2]: binds
B2: …, minimum Cx43 sequence of the truncation array (peptide)
peptide: DPSKDCGDPKYAY

binding [1]: binds
B3: Peptide 3 (…), Cx43-CT array peptide (peptide)
peptide: APLDPMDPPGYKLVTGDRNNSSCRN
